In test [1] the target is T1, FLAG-tagged Plk4 CTD (581–970) (UniProt O00444).
T1 sequence: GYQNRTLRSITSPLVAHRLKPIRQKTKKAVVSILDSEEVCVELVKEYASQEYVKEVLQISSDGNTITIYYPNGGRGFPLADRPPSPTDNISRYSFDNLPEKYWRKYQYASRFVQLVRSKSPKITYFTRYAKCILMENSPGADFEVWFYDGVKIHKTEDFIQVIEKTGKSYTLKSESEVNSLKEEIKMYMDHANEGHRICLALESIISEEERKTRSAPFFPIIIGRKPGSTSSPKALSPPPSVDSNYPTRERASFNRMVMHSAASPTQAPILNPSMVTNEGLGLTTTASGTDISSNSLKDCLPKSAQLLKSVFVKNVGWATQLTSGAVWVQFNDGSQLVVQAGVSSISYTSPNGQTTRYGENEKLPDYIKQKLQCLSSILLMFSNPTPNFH
Nature of the test: affinity purification with mass spectrometry.

Test [2] deals with T2, ZZ-tagged Plk4 CPB (581–884) (UniProt O00444).
T2 sequence: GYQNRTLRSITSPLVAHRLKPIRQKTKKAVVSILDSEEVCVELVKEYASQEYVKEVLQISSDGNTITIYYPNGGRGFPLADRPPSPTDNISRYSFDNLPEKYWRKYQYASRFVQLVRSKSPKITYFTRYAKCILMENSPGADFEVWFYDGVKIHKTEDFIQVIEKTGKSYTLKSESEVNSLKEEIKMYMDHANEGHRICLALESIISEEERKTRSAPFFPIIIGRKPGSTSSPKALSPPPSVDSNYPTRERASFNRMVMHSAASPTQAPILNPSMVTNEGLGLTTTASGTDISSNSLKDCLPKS
In words: affinity purification with mass spectrometry; Expt. 1: lysates of HEK293T cells transfected with ZZ-TEV-Plk4 CPB(581–884) on a human IgG column, eluted after AcTEV digestion with TBSN buffer; SDS-PAGE bands, trypsin, nanoLC-tandem MS.

Results are given in words; binding and its absence hold for the method and conditions named. Binding seen in cells or lysates may run through a third protein. A yes stands for co-enrichment or nearness to the bait. Other partners may have been found. Tags and fused reporters may be left off the sequences shown.

B1: Cep57 (endogenous, HEK293T) (protein, UniProt Q86XR8 1-500)
chain: MAAASVSAASGSHLSNSFAEPSRSNGSMVRHSSSPYVVYPSDKPFLNSDLRRSPSKPTLAYPESNSRAIFSALKNLQDKIRRLELERIQAEESVKTLSRETIEYKKVLDEQIQERENSKNEESKHNQELTSQLLAAENKCNLLEKQLEYMRNMIKHAEMERTSVLEKQVSLERERQHDQTHVQSQLEKLDLLEQEYNKLTTMQALAEKKMQELEAKLHEEEQERKRMQAKAAELQTGLETNRLIFEDKATPCVPNARRIKKKKSKPPEKKSSRNYFGAQPHYRLCLGDMPFVAGKSTSPSHAVVANVQLVLHLMKQHSKALCNDRVINSIPLAKQVSSRGGKSKKLSVTPPSSNGINEELSEVLQTLQDEFGQMSFDHQQLAKLIQESPTVELKDKLECELEALVGRMEAKANQITKVRKYQAQLEKQKLEKQKKELKATKKTLDEERNSSSRSGITGTTNKKDFMKLRPGEKRRKNLQLLKDMQSIQNSLQSSSLCWDY
As to B1, the binding entry in test [1] and in test [2] was “binds” each time.

B2: Cep135 (endogenous, HEK293T) (protein, UniProt Q66GS9 1-1140)
chain: MTTAVERKYINIRKRLDQLGYRQTLTVECLPLVEKLFSDLVHTTESLRQSKLSAVKAEKESANFDFVLEPYKLENARLSRENNELYLELMKLREHSDQHVKELKTSLKKCARETADLKFLNNQYAHKLKLLEKESKAKNERIQQLQEKNLHAVVQTPGGKKRSIAFRRQRMQIDEPVPPSEVSSYPVPQPDDPYIADLLQVADNRIQELQQEVHQLQEKLAMMESGVRDYSKQIELREREIERLSVALDGGRSPDVLSLESRNKTNEKLIAHLNIQVDFLQQANKDLEKRIRELMETKETVTSEVVNLSNKNEKLCQELTEIDQLAQQLERHKEEVLETADKELGEAKKEIKRKLSEMQDLEETMAKLQLELNLCQKEKERLSDELLVKSDLETVVHQLEQEKQRLSKKVESFAVTERQLTLEVERMRLEHGIKRRDRSPSRLDTFLKGIEEERDYYKKELERLQHIIQRRSCSTSYSAREKSSIFRTPEKGDYNSEIHQITRERDELQRMLERFEKYMEDIQSNVKLLTAERDKLSVLYNEAQEELSALRKESTQTTAPHNIVSLMEKEKELALSDLRRIMAEKEALREKLEHIEEVSLFGKSELEKTIEHLTCVNHQLESEKYELKSKVLIMKETIESLENKLKVQAQKFSHVAGDSSHQKTEVNSLRIVNEQLQRSVDDYQHRLSIKRGELESAQAQIKILEEKIDELNLKMTSQDEEAHVMKKTIGVIDKEKDFLQETVDEKTEKIANLQENLANKEKAVAQMKIMISECESSVNQLKETLVNRDREINSLRRQLDAAHKELDEVGRSREIAFKENRRLQDDLATMARENQEISLELEAAVQEKEEMKSRVHKYITEVSRWESLMAAKEKENQDLLDRFQMLHNRAEDWEVKAHQAEGESSSVRLELLSIDTERRHLRERVELLEKEIQEHINAHHAYESQISSMAKAMSRLEEELRHQEDEKATVLNDLSSLRELCIKLDSGKDIMTQQLNSKNLEFERVVVELENVKSESDLLKKQLSNERHTVKNLESLLATNRDKEFHSHLTSHEKDTEIQLLKEKLTLSESKLTSQSRENTMLRAKVAQLQTDYDALKRQISTERYERERAIQEMRRHGLATPPLSSTLRSPSHSPEHRNV
Take B2: the binding entry in test [1] and in test [2] was “binds” in each case.

B3: Cep63 (endogenous, HEK293T) (protein, UniProt Q96MT8 1-703)
chain: MEALLEGIQNRGHGGGFLTSCEAELQELMKQIDIMVAHKKSEWEGRTHALETCLKIREQELKSLRSQLDVTHKEVGMLHQQVEEHEKIKQEMTMEYKQELKKLHEELCILKRSYEKLQKKQMREFRGNTKNHREDRSEIERLTAKIEEFRQKSLDWEKQRLIYQQQVSSLEAQRKALAEQSEIIQAQLVNRKQKLESVELSSQSEIQHLSSKLERANDTICANELEIERLTMRVNDLVGTSMTVLQEQQQKEEKLRESEKLLEALQEEKRELKAALQSQENLIHEARIQKEKLQEKVKATNTQHAVEAIRPREESLAEKKYTSQGQGDLDSVLSQLNFTHTSEDLLQAEVTCLEGSLESVSATCKQLSQELMEKYEELKRMEAHNNEYKAEIKKLKEQILQGEQSYSSALEGMKMEISHLTQELHQRDITIASTKGSSSDMEKRLRAEMQKAEDKAVEHKEILDQLESLKLENRHLSEMVMKLELGLHEAKEISLADLQENYIEALNKLVSENQQLQKDLMNTKSQLEISTQMCKKQNDRIFKPTHSRTTEFKNTEFKPTHGQHRHDGIKTEHYKTDLHSPRGQASDSINPMSRVLSPLSPQISPCSSTRSLTSYSLCKTHSLPSALDTNEANFSDTMSESMNDQEEFISSCSLPVSPLGSIATRFLEEEELRSHHILERLDAHIEELKRESEKTVRQFTALK
On to B3, for which the binding entry in test [1] and in test [2] was “binds” each time.

(Values after publication PMC10462243.)
